Experimental findings from paper PMC7049810 are described below.

The chains behind the UniProt entries cited, without tags or fusion partners. Residues count along the entry.
UniProt P0AFB1, residues 20-294: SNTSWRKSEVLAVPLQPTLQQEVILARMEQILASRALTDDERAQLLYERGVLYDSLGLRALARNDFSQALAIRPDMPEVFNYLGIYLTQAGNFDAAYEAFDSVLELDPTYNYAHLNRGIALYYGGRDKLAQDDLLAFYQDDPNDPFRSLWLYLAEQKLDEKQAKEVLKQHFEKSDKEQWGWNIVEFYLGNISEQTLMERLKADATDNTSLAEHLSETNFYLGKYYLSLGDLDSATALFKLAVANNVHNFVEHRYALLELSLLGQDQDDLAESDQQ

Experiment [1] deals with NlpI, soluble version lacking its membrane anchor (Escherichia coli) (UniProt P0AFB1). Kind of experiment: MST; titration: NT647-labelled protein against a two-fold serial dilution (16 steps) of unlabelled ligand; 25 mM HEPES/NaOH, 150 mM NaCl, 0.05% Triton X-100, pH 7.5; Monolith NT.115; apparent constants; for NlpI with itself: dimer to monomers; both purified.
The target is the same in experiment [2]. Kind of experiment: pull-down; Ni2+-NTA agarose beads; His-tagged protein with untagged or native ligand, overnight at 4°C; 10 mM HEPES/NaOH, 10 mM MgCl2, 150 mM NaCl, 0.05% Triton X-100, pH 7.5; washes with 30 mM imidazole; SDS-PAGE; both purified.

Results are given in words; binding and its absence hold for the method and conditions named.

B1: LpoA, purified (protein, UniProt P45464 27-678)
chain: CGTHTPDQSTAYMQGTAQADSAFYLQQMQQSSDDTRINWQLLAIRALVKEGKTGQAVELFNQLPQELNDAQRREKTLLAVEIKLAQKDFAGAQNLLAKITPADLEQNQQARYWQAKIDASQGRPSIDLLRALIAQEPLLGAKEKQQNIDATWQALSSMTQEQANTLVINADENILQGWLDLQRVWFDNRNDPDMMKAGIADWQKRYPNNPGAKMLPTQLVNVKAFKPASTNKIALLLPLNGQAAVFGRTIQQGFEAAKNIGTQPVAAQVAAAPAADVAEQPQPQTVDGVASPAQASVSDLTGEQPAAQPVPVSAPATSTAAVSAPANPSAELKIYDTSSQPLSQILSQVQQDGASIVVGPLLKNNVEELLKSNTPLNVLALNQPENIENRVNICYFALSPEDEARDAARHIRDQGKQAPLVLIPRSSLGDRVANAFAQEWQKLGGGTVLQQKFGSTSELRAGVNGGSGIALTGSPITLRATTDSGMTTNNPTLQTTPTDDQFTNNGGRVDAVYIVATPGEIAFIKPMIAMRNGSQSGATLYASSRSAQGTAGPDFRLEMEGLQYSEIPMLAGGNLPLMQQALSAVNNDYSLARMYAMGVDAWSLANHFSQMRQVQGFEINGNTGSLTANPDCVINRNLSWLQYQQGQVVPVS
modifications: where used as the labelled protein in MST: NT647 RED-Maleimide dye on cysteines
As for B1, in experiment [1], the binding entry is on record as “no binding (tested: 30 μM)”.

B2: lytic transglycosylase Slt (enzyme, UniProt P0AGC3 28-645)
chain: DSLDEQRSRYAQIKQAWDNRQMDVVEQMMPGLKDYPLYPYLEYRQITDDLMNQPAVTVTNFVRANPTLPPARTLQSRFVNELARREDWRGLLAFSPEKPGTTEAQCNYYYAKWNTGQSEEAWQGAKELWLTGKSQPNACDKLFSVWRASGKQDPLAYLERIRLAMKAGNTGLVTVLAGQMPADYQTIASAIISLANNPNTVLTFARTTGATDFTRQMAAVAFASVARQDAENARLMIPSLAQAQQLNEDQIQELRDIVAWRLMGNDVTDEQAKWRDDAIMRSQSTSLIERRVRMALGTGDRRGLNTWLARLPMEAKEKDEWRYWQADLLLERGREAEAKEILHQLMQQRGFYPMVAAQRIGEEYELKIDKAPQNVDSALTQGPEMARVRELMYWNLDNTARSEWANLVKSKSKTEQAQLARYAFNNQWWDLSVQATIAGKLWDHLEERFPLAYNDLFKRYTSGKEIPQSYAMAIARQESAWNPKVKSPVGASGLMQIMPGTATHTVKMFSIPGYSSPGQLLDPETNINIGTSYLQYVYQQFGNNRIFSSAAYNAGPGRVRTWLGNSAGRIDAVAFVESIPFSETRGYVKNVLAYDAYYRYFMGDKPTLMSATEWGRRY
Regarding B2, in experiment [2], the binding result was “no binding”.

B3: carboxypeptidase PBP5 (enzyme, UniProt P0AEB2 30-403)
chain: DDLNIKTMIPGVPQIDAESYILIDYNSGKVLAEQNADVRRDPASLTKMMTSYVIGQAMKAGKFKETDLVTIGNDAWATGNPVFKGSSLMFLKPGMQVPVSQLIRGINLQSGNDACVAMADFAAGSQDAFVGLMNSYVNALGLKNTHFQTVHGLDADGQYSSARDMALIGQALIRDVPNEYSIYKEKEFTFNGIRQLNRNGLLWDNSLNVDGIKTGHTDKAGYNLVASATEGQMRLISAVMGGRTFKGREAESKKLLTWGFRFFETVNPLKVGKEFASEPVWFGDSDRASLGVDKDVYLTIPRGRMKDLKASYVLNSSELHAPLQKNQVVGTINFQLDGKTIEQRPLVVLQEIPEGNFFGKIIDYIKLMFHHWFG
Regarding B3, the binding result in experiment [2] is “no binding”.
